Test results as given in publication PMC9534967.

By UniProt entry, the sequences of proteins in these tests, tags left out. Where a name states a change or a piece, a line headed by the entry shows the natural chain unless it says otherwise.
UniProt O14727: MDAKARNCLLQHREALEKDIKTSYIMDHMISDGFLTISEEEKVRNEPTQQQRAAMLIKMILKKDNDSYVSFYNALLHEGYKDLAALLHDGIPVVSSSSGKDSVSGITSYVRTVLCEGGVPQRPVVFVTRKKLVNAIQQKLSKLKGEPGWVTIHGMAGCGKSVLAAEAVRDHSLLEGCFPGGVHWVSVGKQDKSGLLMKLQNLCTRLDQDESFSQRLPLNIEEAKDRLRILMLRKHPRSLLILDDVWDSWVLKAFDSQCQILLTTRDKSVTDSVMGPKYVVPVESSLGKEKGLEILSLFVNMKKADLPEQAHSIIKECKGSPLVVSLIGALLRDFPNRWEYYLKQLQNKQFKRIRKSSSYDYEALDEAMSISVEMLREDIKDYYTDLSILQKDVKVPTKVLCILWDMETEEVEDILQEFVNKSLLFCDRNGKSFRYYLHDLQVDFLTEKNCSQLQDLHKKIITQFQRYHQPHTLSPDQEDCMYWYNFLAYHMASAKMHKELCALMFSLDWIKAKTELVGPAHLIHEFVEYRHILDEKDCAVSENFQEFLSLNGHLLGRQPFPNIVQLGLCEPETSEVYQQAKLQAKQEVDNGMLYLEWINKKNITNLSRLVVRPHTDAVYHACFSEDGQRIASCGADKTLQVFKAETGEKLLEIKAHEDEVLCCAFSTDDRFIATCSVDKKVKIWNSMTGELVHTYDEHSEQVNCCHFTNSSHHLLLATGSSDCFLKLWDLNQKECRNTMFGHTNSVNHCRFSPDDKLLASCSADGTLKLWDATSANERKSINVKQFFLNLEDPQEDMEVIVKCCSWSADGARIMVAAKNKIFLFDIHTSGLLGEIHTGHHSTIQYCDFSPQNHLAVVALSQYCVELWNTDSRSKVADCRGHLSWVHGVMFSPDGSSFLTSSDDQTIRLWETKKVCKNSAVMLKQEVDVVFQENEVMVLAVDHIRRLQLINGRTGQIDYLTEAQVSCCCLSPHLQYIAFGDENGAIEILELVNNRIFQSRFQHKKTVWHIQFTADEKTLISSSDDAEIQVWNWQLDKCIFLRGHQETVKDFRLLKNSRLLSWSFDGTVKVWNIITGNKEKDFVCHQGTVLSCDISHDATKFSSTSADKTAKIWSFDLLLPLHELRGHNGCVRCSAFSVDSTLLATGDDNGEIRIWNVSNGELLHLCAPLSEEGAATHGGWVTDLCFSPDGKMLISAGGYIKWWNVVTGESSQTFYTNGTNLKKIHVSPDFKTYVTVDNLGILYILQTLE
UniProt P99999: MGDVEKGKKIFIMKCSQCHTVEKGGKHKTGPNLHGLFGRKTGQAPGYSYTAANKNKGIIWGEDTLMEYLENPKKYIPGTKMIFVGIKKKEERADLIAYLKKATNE

Biological target: His-tagged recombinant WD1/WD2 domain of APAF1 (UniProt O14727)
Assay: pull-down; 2 µg His-tagged WD1/WD2 domain of APAF1 on Ni-NTA beads, with or without 1 or 2 µg ABL sense, anti-sense or mutant (∆APAF1) RNA at 4 °C for 1 h, then 2 µg GST-Cyt c at room temperature for 1 h; PBS washes; Western blot and coomassie staining; both purified

Substance: GST-tagged recombinant Cyt c (from UniProt P99999 1-105)
- binding: binds

No constants are given. Whether binding was seen depends on the method and setting. Binding can be weak; no strength is given.
